Results as given in PubChem BioAssay AID662 (National Center for Advancing Translational Sciences (NCATS), 2007).
The other results are listed elsewhere or left out. Further columns of the screen follow, without active or inactive calls. The list favours compounds with an active or inconclusive main result. The note in brackets gives the kind of curve behind each potency; many fits are weak.

Assay: Cell signaling CRE-BLA (Fsk stim)
Settings: CHO CRE-bla reporter (cAMP response element driving beta-lactamase), forskolin EC10, beta-lactamase ratio; measured here: 460 nm blue channel
Procedure, shortened: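 Cells were plated overnight at 37 °C, exposed to compound titrations plus EC10 NKH 477 for 3 h, then given CCF4 dye for 2 h at room temperature. Blue/green (460/530 nm) ratio was converted to %Activity and AC50 values calculated.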

**Q.** With `COC(=O)C(C)Oc1ccc2c3c(c(=O)oc2c1)CCCCC3` (stereo not drawn) as the compound, how does the AC50 read?
**A.** 25.1 µM [rising, single point]

**Q.** For `CCOC(=O)CSc1nc(N)c(C#N)c(CC(C)C)c1C#N`, which AC50 is on record?
**A.** 12.6 µM [rising, single point]

**Q.** For `O=S(=O)(Nc1nc2ccccc2nc1NCc1ccco1)c1ccccc1`, which AC50 is on record?
**A.** 5.01 µM [falling, full curve, poor fit]

**Q.** For `O=C(Nc1ncnc2c1CCC2)C12CC3CC(CC(C3)C1)C2`, which AC50 is on record?
**A.** 25.1 µM [rising, single point]

**Q.** For `Cc1cc(NS(=O)(=O)c2ccc(NC(=O)c3ccoc3C)cc2)nc(C)n1`, which AC50 is on record?
**A.** 2.51 µM [falling, single point]

**Q.** Which AC50 does the source give for `CCNc1ncc2nc(-c3ccc(OC)cc3)c(=O)n(-c3ccc(OC)cc3)c2n1` here?
**A.** 3.98 µM [rising, partial curve]

**Q.** For `c1cncc(-c2cncnc2NC2CCNCC2)c1`, which AC50 is on record?
**A.** 5.01 µM [rising, single point]

**Q.** Which AC50 does the source give for `O=C(c1cccc2c1-c1ccccc1/C2=N/O)N1CCCCC1` here?
**A.** 7.94 µM [falling, partial curve]

**Q.** Which AC50 does the source give for `Cc1cc(NC(=O)CSc2cn(CCNC(=O)c3ccc(Cl)cc3)c3ccccc23)no1` here?
**A.** 7.94 µM [rising, partial curve]

**Q.** With `CCN(CC)C(=O)COc1ccc2oc(C)c(C(=O)OC(C)C)c2c1` as the compound, how does the AC50 read?
**A.** 12.6 µM [rising, partial curve]

**Q.** Which AC50 does the source give for `N=c1c2c3c(sc2ncn1CCN1CCOCC1)CCCCC3` here?
**A.** 15.8 µM [rising, single point]

**Q.** Which AC50 does the source give for `O=C(O)c1ccccc1-c1ccccc1C(=O)Nc1ccc2c(c1)[nH]c(=O)c1ccccc12` here?
**A.** 0.1 µM [rising, full curve, poor fit]

**Q.** Which AC50 does the source give for `O=C(C1CCCN(S(=O)(=O)c2cccc3nsnc23)C1)N1CCN(c2ccccn2)CC1` (stereo not drawn) here?
**A.** 31.6 µM [falling, partial curve]

**Q.** Which AC50 does the source give for `CCOC(=O)c1[nH]c(=O)[nH]c1COC(=O)c1cc2ccccc2o1` here?
**A.** 0.398 µM [rising, partial curve]

**Q.** Which AC50 does the source give for `C=CCc1ccc(OCC(O)CN2CCCCC2)c(OC)c1` (stereo not drawn) here?
**A.** 15.8 µM [rising, single point]

**Q.** Which AC50 does the source give for `COc1ccc(-n2c(=O)c(-c3cccs3)nc3cnc(N(C)C)nc32)cc1` here?
**A.** 12.6 µM [rising, single point]

**Q.** For `COc1ccc(Oc2ncc3ncc(=O)n(Cc4ccc(F)cc4)c3n2)cc1`, which AC50 is on record?
**A.** 20 µM [rising, single point]

**Q.** Which AC50 does the source give for `CCOc1ccc(NC2=NC(C(=O)NCc3ccccc3)CC(=O)N2)cc1` (stereo not drawn) here?
**A.** 0.02 µM [rising, full curve, poor fit]

**Q.** Which AC50 does the source give for `O=C(Nc1cccc(-c2cn3ccccc3n2)c1)c1cnccn1` here?
**A.** 2 µM [rising, full curve]

**Q.** For `CC(=O)Oc1c(C)cc(O)c2ccccc12`, which AC50 is on record?
**A.** 10 µM [falling, partial curve]

**Q.** With `CN1CC(=O)N(CCOc2ccccc2)C1=O` as the compound, how does the AC50 read?
**A.** 0.2 µM [falling, full curve, poor fit]

**Q.** For `Clc1cccc(-c2cc3nc4c(c(N5CCOCC5)n3n2)CCCC4)c1`, which AC50 is on record?
**A.** 3.98 µM [rising, single point]

**Q.** For `COc1ccc(N2CCN(C(=O)c3ccc4c(=O)n(CC5CCCO5)c(=O)[nH]c4c3)CC2)cc1` (stereo not drawn), which AC50 is on record?
**A.** 0.00316 µM [falling, full curve, poor fit]

**Q.** With `CC12CCC(C(=O)Nc3cccnc3)(CC1=O)C2(C)C` (stereo not drawn) as the compound, how does the AC50 read?
**A.** 0.00398 µM [falling, full curve]

**Q.** With `CN1C(=O)c2ccccc2C(C(=O)O)C1c1cn(C)c2ccccc12` (stereo not drawn) as the compound, how does the AC50 read?
**A.** 0.251 µM [falling, full curve, poor fit]

**Q.** With `COC(=O)c1ccc(CSc2nc3scc(-c4cccs4)c3c(=O)[nH]2)o1` as the compound, how does the AC50 read?
**A.** 12.6 µM [rising, partial curve]

**Q.** Which AC50 does the source give for `CCNc1ncc2nc(CCc3ccccc3)c(=O)n(C)c2n1` here?
**A.** 10 µM [rising, partial curve]

**Q.** With `CC(C)NC(=O)CN(c1cccc(Br)c1)S(C)(=O)=O` as the compound, how does the AC50 read?
**A.** 25.1 µM [falling, single point]

**Q.** Which AC50 does the source give for `Cc1c(CNCc2cccs2)c(C(=O)O)c(C)n1Cc1ccccc1` here?
**A.** 0.0501 µM [falling, partial curve]

**Q.** Which AC50 does the source give for `CCCC(=O)c1c(NC(C)C)cc(C)oc1=O` here?
**A.** 6.31 µM [rising, partial curve]

**Q.** For `Cc1ccc(C(=O)Nc2nc3ccc(S(C)(=O)=O)cc3s2)s1`, which AC50 is on record?
**A.** 12.6 µM [rising, partial curve]

**Q.** Which AC50 does the source give for `CC1=C(C(=O)OCc2ccccc2)C(c2ccc([N+](=O)[O-])cc2)NC(=O)N1CCCCCC(=O)O` (stereo not drawn) here?
**A.** 10 µM [rising, partial curve]

**Q.** Which AC50 does the source give for `O=C(NC1CC1)c1ccc(S(=O)(=O)NC2CCCCCC2)cc1` here?
**A.** 12.6 µM [rising, partial curve]

**Q.** With `Cc1cc(C(=O)CN(Cc2ccc(F)cc2)S(=O)(=O)c2ccc3c(c2)OCCO3)c(C)n1C` as the compound, how does the AC50 read?
**A.** 25.1 µM [falling, single point]

**Q.** With `Cc1ccc(S(=O)(=O)OC2CCN(C)CC2)cc1` as the compound, how does the AC50 read?
**A.** 0.0631 µM [rising, full curve, poor fit]

**Q.** For `Cc1cc(C)n(-c2ccc(Cl)c(C(=O)OCC(=O)N3CCCCC3C)n2)n1` (stereo not drawn), which AC50 is on record?
**A.** 10 µM [rising, single point]

**Q.** For `Oc1ccc(Nc2nc(N3CCCC3)c3ccccc3n2)cc1`, which AC50 is on record?
**A.** 10 µM [rising, partial curve]

**Q.** Which AC50 does the source give for `Cc1ccc(C2C(C(=O)c3cc4ccccc4o3)=C(O)C(=O)N2CCN2CCOCC2)o1` (stereo not drawn) here?
**A.** 5.01 µM [falling, full curve]

**Q.** Which AC50 does the source give for `Cc1cc(-c2nnc3sc(C4CCCCC4)nn23)n[nH]1` here?
**A.** 2.51 µM [rising, partial curve, poor fit]

**Q.** With `CC(=O)c1cc(-c2ccc(F)cc2)n(CCC(=O)Nc2cc(C)[nH]n2)c1C` as the compound, how does the AC50 read?
**A.** 0.631 µM [falling, single point]

**Q.** For `CC(O)CNc1nc2ccccc2n1-c1ncnc2sc3c(c12)CCC3` (stereo not drawn), which AC50 is on record?
**A.** 2 µM [rising, full curve, poor fit]

**Q.** For `CCc1ccc(Nc2nc(N)nc(CSc3nnnn3-c3ccccc3)n2)cc1`, which AC50 is on record?
**A.** 12.6 µM [rising, partial curve]

**Q.** For `CS(=O)(=O)N(CC(=O)N1CCCC1)c1cccc(Cl)c1`, which AC50 is on record?
**A.** 0.631 µM [falling, full curve, poor fit]

**Q.** For `Cc1nc(N2CCN(Cc3ccc4c(c3)OCO4)CC2)c2oc3ccccc3c2n1`, which AC50 is on record?
**A.** 2 µM [rising, full curve]

**Q.** With `OCc1ccccc1OCCOc1ccc(Cl)c2cccnc12` as the compound, how does the AC50 read?
**A.** 10 µM [rising, single point]

**Q.** Which AC50 does the source give for `OC(CNCCc1ccc(Cl)cc1)COCc1ccco1` (stereo not drawn) here?
**A.** 15.8 µM [falling, partial curve]

**Q.** With `N#Cc1cccc(-c2ccc3ncnc(NCc4cccnc4)c3c2)c1` as the compound, how does the AC50 read?
**A.** 10 µM [rising, partial curve]

**Q.** For `Clc1ccc(Cn2ncc3c(N4CCOCC4)ncnc32)cc1`, which AC50 is on record?
**A.** 10 µM [rising, single point]

**Q.** Which AC50 does the source give for `O=c1c2ccccc2nc2n1CC/C2=C/N1CCN(c2cccc(C(F)(F)F)c2)CC1` here?
**A.** 5.01 µM [falling, partial curve]

**Q.** For `O=c1c2ccccc2nnn1CSc1nnc(-c2cccs2)n1Cc1ccccc1`, which AC50 is on record?
**A.** 25.1 µM [rising, single point]

**Q.** Which AC50 does the source give for `C=CCOc1ccc2c(c1)c(S(=O)(=O)c1ccc(C)cc1)cn2COC` here?
**A.** 10 µM [rising, single point]

**Q.** For `CCn1c(=O)c2cc(C(=O)N3CCN(C(=O)c4ccco4)CC3)sc2c2ccccc21`, which AC50 is on record?
**A.** 3.16 µM [rising, full curve]

**Q.** For `Cc1nc(C)c(C(=O)NCc2ccc(Cl)cc2)o1`, which AC50 is on record?
**A.** 0.316 µM [falling, partial curve]

**Q.** For `CC(C)c1ccc(O)c(NC(=O)c2cncc(Br)c2)c1`, which AC50 is on record?
**A.** 2.51 µM [falling, single point]

**Q.** With `CCOc1ncccc1C(=O)OCCN1C(=O)c2ccccc2C1=O` as the compound, how does the AC50 read?
**A.** 5.01 µM [rising, single point]

**Q.** With `CCn1c(SCC(=O)Nc2ccc3c(c2)OCO3)nc2c1c(=O)n(C)c(=O)n2C` as the compound, how does the AC50 read?
**A.** 2.51 µM [rising, full curve, poor fit]

**Q.** Which AC50 does the source give for `CC(=O)Nc1nc(CC(C)C)cc(-c2ccco2)c1C#N` here?
**A.** 25.1 µM [rising, single point]

**Q.** With `COC(=O)c1c(NC(=O)C2CC=CCC2C(=O)O)sc(C(N)=O)c1C` (stereo not drawn) as the compound, how does the AC50 read?
**A.** 0.0316 µM [falling, full curve, poor fit]

**Q.** With `CCc1nc(SCc2cccnc2)c2c(=O)n(C)c(=O)n(C)c2n1` as the compound, how does the AC50 read?
**A.** 2.51 µM [rising, full curve]

**Q.** For `COc1ccc(Cc2nnc(SCC(=O)c3ccccc3)o2)cc1`, which AC50 is on record?
**A.** 5.01 µM [falling, single point]

**Q.** Which AC50 does the source give for `O=C(Nc1ccccc1C(=O)Nc1ccccc1C(=O)NCc1ccco1)c1ccco1` here?
**A.** 3.16 µM [rising, partial curve]

**Q.** With `Cc1ccc2cc3c(NC(=O)CC(C)C)nn(C)c3nc2c1` as the compound, how does the AC50 read?
**A.** 7.94 µM [rising, partial curve]

**Q.** For `CCOc1cc(C(=O)Nc2cc(=O)n(C)c(=O)n2C)cc(OCC)c1OCC`, which AC50 is on record?
**A.** 0.00316 µM [falling, full curve]

**Q.** Which AC50 does the source give for `O=C(CCN1c2ccccc2Sc2ccccc21)OCc1nnc(-c2ccccc2)o1` here?
**A.** 3.16 µM [rising, single point]

**Q.** For `CC(=O)C1=C(C)NC(SCC(=O)c2cc(Cl)ccc2Cl)=C(C#N)C1c1ccco1` (stereo not drawn), which AC50 is on record?
**A.** 15.8 µM [falling, single point]

**Q.** For `O=c1c(-c2ccccc2)nc2cnc(Oc3ccccc3)nc2n1C1CC1`, which AC50 is on record?
**A.** 12.6 µM [rising, partial curve]

**Q.** With `CCOC(=O)c1cc(-c2ccc3c(c2)OCO3)nc2onc(C)c12` as the compound, how does the AC50 read?
**A.** 12.6 µM [rising, partial curve]

**Q.** Which AC50 does the source give for `COc1cccc(C(=O)Nc2cc(C)c3c(=O)oc4ccccc4c3n2)c1` here?
**A.** 10 µM [rising, partial curve]
